From paper PMC3988878, “Ultrastructural characterisation of Bacillus subtilis TatA complexes suggests they are too small to form homooligomeric translocation pores” (Biochimica et Biophysica Acta, 2013)
No constants are given. Whether binding was seen depends on the method and setting. Some binding calls cover weakened binding; strength is not graded here. Sequences can lack the tags named with a protein.

Legend:
[1] = biological target: B. subtilis TatAc with a C-terminal Strep-II tag (B. subtilis) (UniProt O31804); test: native gel or EMSA; blue native PAGE (5–13.5% gradient) of membranes solubilised in 2% digitonin, 50 mM Bis–Tris pH 7.0, 750 mM 6-aminocaproic acid; immunoblot for the Strep-II tag
[2] = biological target: E. coli TatA with a C-terminal Strep-II tag (E. coli) (UniProt P69428); test: as above

Binder	binding [1]	binding [2]
B. subtilis TatAc with a C-terminal Strep-II tag (protein, UniProt O31804 1-62) MELSFTKILVILFVGFLVFGPDKLPALGRAAGKALSEFKQATSGLTQDIRKNDSENKEDKQM	binds	–
E. coli TatA with a C-terminal Strep-II tag (protein, UniProt P69428 1-89) MGGISIWQLLIIAVIVVLLFGTKKLGSIGSDLGASIKGFKKAMSDDEPKQDKTSQDADFTAKTIADKQADTNQEQAKTEDAKRHDKEQV	–	binds
